This is an account of results in paper doi:10.1101/2023.07.20.548338.

By UniProt entry, the sequences of proteins in these tests, tags left out. Where a name states a change or a piece, a line headed by the entry shows the natural chain unless it says otherwise. Residues count along the entry.
UniProt D3Z7P3, 55-674: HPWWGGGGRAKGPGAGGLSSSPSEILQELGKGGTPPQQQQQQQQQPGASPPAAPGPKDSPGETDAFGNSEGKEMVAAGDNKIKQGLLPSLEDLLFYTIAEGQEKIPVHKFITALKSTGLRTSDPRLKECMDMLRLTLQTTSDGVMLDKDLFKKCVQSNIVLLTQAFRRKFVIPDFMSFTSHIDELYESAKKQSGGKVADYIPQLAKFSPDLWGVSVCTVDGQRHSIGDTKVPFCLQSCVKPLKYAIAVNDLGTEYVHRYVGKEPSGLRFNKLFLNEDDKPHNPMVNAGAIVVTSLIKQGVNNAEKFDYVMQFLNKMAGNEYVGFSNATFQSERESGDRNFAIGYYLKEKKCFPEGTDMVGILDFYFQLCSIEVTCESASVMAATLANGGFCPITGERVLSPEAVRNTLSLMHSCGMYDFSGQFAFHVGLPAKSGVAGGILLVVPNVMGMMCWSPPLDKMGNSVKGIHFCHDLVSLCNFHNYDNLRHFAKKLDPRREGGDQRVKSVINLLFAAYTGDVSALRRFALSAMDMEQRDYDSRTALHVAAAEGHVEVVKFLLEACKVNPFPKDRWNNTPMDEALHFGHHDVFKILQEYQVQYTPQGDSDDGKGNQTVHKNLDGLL
UniProt O94925, 55-669: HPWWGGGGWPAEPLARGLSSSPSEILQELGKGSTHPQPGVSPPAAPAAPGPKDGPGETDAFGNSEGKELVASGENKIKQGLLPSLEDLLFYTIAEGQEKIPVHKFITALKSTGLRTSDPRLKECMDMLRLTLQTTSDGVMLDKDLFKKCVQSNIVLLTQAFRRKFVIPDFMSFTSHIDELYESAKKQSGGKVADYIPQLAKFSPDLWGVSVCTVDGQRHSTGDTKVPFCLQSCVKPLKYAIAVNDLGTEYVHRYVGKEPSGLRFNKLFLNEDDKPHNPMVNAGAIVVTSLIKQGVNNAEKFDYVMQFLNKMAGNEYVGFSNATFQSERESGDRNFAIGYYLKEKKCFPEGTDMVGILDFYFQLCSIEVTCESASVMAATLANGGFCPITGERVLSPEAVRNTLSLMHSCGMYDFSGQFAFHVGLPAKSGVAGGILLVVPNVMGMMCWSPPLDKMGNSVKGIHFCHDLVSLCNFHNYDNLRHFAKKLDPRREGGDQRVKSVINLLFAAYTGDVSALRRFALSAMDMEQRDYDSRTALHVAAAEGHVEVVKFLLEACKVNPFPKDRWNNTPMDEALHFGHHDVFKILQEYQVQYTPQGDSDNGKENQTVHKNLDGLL

For assay [1], the target named is glutaminase 1 (GLS1; both KGA and GAC), endogenous in MEFs (mouse (endogenous in MEFs)) (UniProt D3Z7P3). As to the kind of experiment: proximity ligation.
Assay [2] has the same target. In words: co-IP.
Assay [3] has as its target KGA-mCherry, expressed in MEFs (UniProt O94925). As to the kind of experiment: FRET or BRET.

Results are given in words; binding and its absence hold for the method and conditions named. Binding seen in cells or lysates may run through a third protein. Some binding calls cover weakened binding; strength is not graded here. Sequences can lack the tags named with a protein.

B1: HA-tagged PDZD8, stably expressed in MEFs (protein, UniProt Q8NEN9 1-1154)
chain: MGLLLMILASAVLGSFLTLLAQFFLLYRRQPEPPADEAARAGEGFRYIKPVPGLLLREYLYGGGRDEEPSGAAPEGGATPTAAPETPAPPTRETCYFLNATILFLFRELRDTALTRRWVTKKIKVEFEELLQTKTAGRLLEGLSLRDVFLGETVPFIKTIRLVRPVVPSATGEPDGPEGEALPAACPEELAFEAEVEYNGGFHLAIDVDLVFGKSAYLFVKLSRVVGRLRLVFTRVPFTHWFFSFVEDPLIDFEVRSQFEGRPMPQLTSIIVNQLKKIIKRKHTLPNYKIRFKPFFPYQTLQGFEEDEEHIHIQQWALTEGRLKVTLLECSRLLIFGSYDREANVHCTLELSSSVWEEKQRSSIKTVELIKGNLQSVGLTLRLVQSTDGYAGHVIIETVAPNSPAAIADLQRGDRLIAIGGVKITSTLQVLKLIKQAGDRVLVYYERPVGQSNQGAVLQDNFGQLEENFLSSSCQSGYEEEAAGLTVDTESRELDSEFEDLASDVRAQNEFKDEAQSLSHSPKRVPTTLSIKPLGAISPVLNRKLAVGSHPLPPKIQSKDGNKPPPLKTSEITDPAQVSKPTQGSAFKPPVPPRPQAKVPLPSADAPNQAEPDVLVEKPEKVVPPPLVDKSAEKQAKNVDAIDDAAAPKQFLAKQEVAKDVTSETSCPTKDSSDDRQTWESSEILYRNKLGKWTRTRASCLFDIEACHRYLNIALWCRDPFKLGGLICLGHVSLKLEDVALGCLATSNTEYLSKLRLEAPSPKAIVTRTALRNLSMQKGFNDKFCYGDITIHFKYLKEGESDHHVVTNVEKEKEPHLVEEVSVLPKEEQFVGQMGLTENKHSFQDTQFQNPTWCDYCKKKVWTKAASQCMFCAYVCHKKCQEKCLAETSVCGATDRRIDRTLKNLRLEGQETLLGLPPRVDAEASKSVNKTTGLTRHIINTSSRLLNLRQVSKTRLSEPGTDLVEPSPKHTPNTSDNEGSDTEVCGPNSPSKRGNSTGIKLVRKEGGLDDSVFIAVKEIGRDLYRGLPTEERIQKLEFMLDKLQNEIDQELEHNNSLVREEKETTDTRKKSLLSAALAKSGERLQALTLLMIHYRAGIEDIETLESLSLDQHSKKISKYTDDTEEDLDNEISQLIDSQPFSSISDDLFGPSESV
For the molecule B1, the binding result in assay [1] and in assay [2] was “binds” in each case.

B2: HA-tagged PDZD8-T527A, stably expressed in MEFs (protein, UniProt Q8NEN9 1-1154)
chain: MGLLLMILASAVLGSFLTLLAQFFLLYRRQPEPPADEAARAGEGFRYIKPVPGLLLREYLYGGGRDEEPSGAAPEGGATPTAAPETPAPPTRETCYFLNATILFLFRELRDTALTRRWVTKKIKVEFEELLQTKTAGRLLEGLSLRDVFLGETVPFIKTIRLVRPVVPSATGEPDGPEGEALPAACPEELAFEAEVEYNGGFHLAIDVDLVFGKSAYLFVKLSRVVGRLRLVFTRVPFTHWFFSFVEDPLIDFEVRSQFEGRPMPQLTSIIVNQLKKIIKRKHTLPNYKIRFKPFFPYQTLQGFEEDEEHIHIQQWALTEGRLKVTLLECSRLLIFGSYDREANVHCTLELSSSVWEEKQRSSIKTVELIKGNLQSVGLTLRLVQSTDGYAGHVIIETVAPNSPAAIADLQRGDRLIAIGGVKITSTLQVLKLIKQAGDRVLVYYERPVGQSNQGAVLQDNFGQLEENFLSSSCQSGYEEEAAGLTVDTESRELDSEFEDLASDVRAQNEFKDEAQSLSHSPKRVPATLSIKPLGAISPVLNRKLAVGSHPLPPKIQSKDGNKPPPLKTSEITDPAQVSKPTQGSAFKPPVPPRPQAKVPLPSADAPNQAEPDVLVEKPEKVVPPPLVDKSAEKQAKNVDAIDDAAAPKQFLAKQEVAKDVTSETSCPTKDSSDDRQTWESSEILYRNKLGKWTRTRASCLFDIEACHRYLNIALWCRDPFKLGGLICLGHVSLKLEDVALGCLATSNTEYLSKLRLEAPSPKAIVTRTALRNLSMQKGFNDKFCYGDITIHFKYLKEGESDHHVVTNVEKEKEPHLVEEVSVLPKEEQFVGQMGLTENKHSFQDTQFQNPTWCDYCKKKVWTKAASQCMFCAYVCHKKCQEKCLAETSVCGATDRRIDRTLKNLRLEGQETLLGLPPRVDAEASKSVNKTTGLTRHIINTSSRLLNLRQVSKTRLSEPGTDLVEPSPKHTPNTSDNEGSDTEVCGPNSPSKRGNSTGIKLVRKEGGLDDSVFIAVKEIGRDLYRGLPTEERIQKLEFMLDKLQNEIDQELEHNNSLVREEKETTDTRKKSLLSAALAKSGERLQALTLLMIHYRAGIEDIETLESLSLDQHSKKISKYTDDTEEDLDNEISQLIDSQPFSSISDDLFGPSESV
On to B2, for which the binding result in assay [1] and in assay [2] was “binds” each time.

B3: PDZD8-GFP, expressed in MEFs (protein, UniProt Q8NEN9 1-1154)
chain: MGLLLMILASAVLGSFLTLLAQFFLLYRRQPEPPADEAARAGEGFRYIKPVPGLLLREYLYGGGRDEEPSGAAPEGGATPTAAPETPAPPTRETCYFLNATILFLFRELRDTALTRRWVTKKIKVEFEELLQTKTAGRLLEGLSLRDVFLGETVPFIKTIRLVRPVVPSATGEPDGPEGEALPAACPEELAFEAEVEYNGGFHLAIDVDLVFGKSAYLFVKLSRVVGRLRLVFTRVPFTHWFFSFVEDPLIDFEVRSQFEGRPMPQLTSIIVNQLKKIIKRKHTLPNYKIRFKPFFPYQTLQGFEEDEEHIHIQQWALTEGRLKVTLLECSRLLIFGSYDREANVHCTLELSSSVWEEKQRSSIKTVELIKGNLQSVGLTLRLVQSTDGYAGHVIIETVAPNSPAAIADLQRGDRLIAIGGVKITSTLQVLKLIKQAGDRVLVYYERPVGQSNQGAVLQDNFGQLEENFLSSSCQSGYEEEAAGLTVDTESRELDSEFEDLASDVRAQNEFKDEAQSLSHSPKRVPTTLSIKPLGAISPVLNRKLAVGSHPLPPKIQSKDGNKPPPLKTSEITDPAQVSKPTQGSAFKPPVPPRPQAKVPLPSADAPNQAEPDVLVEKPEKVVPPPLVDKSAEKQAKNVDAIDDAAAPKQFLAKQEVAKDVTSETSCPTKDSSDDRQTWESSEILYRNKLGKWTRTRASCLFDIEACHRYLNIALWCRDPFKLGGLICLGHVSLKLEDVALGCLATSNTEYLSKLRLEAPSPKAIVTRTALRNLSMQKGFNDKFCYGDITIHFKYLKEGESDHHVVTNVEKEKEPHLVEEVSVLPKEEQFVGQMGLTENKHSFQDTQFQNPTWCDYCKKKVWTKAASQCMFCAYVCHKKCQEKCLAETSVCGATDRRIDRTLKNLRLEGQETLLGLPPRVDAEASKSVNKTTGLTRHIINTSSRLLNLRQVSKTRLSEPGTDLVEPSPKHTPNTSDNEGSDTEVCGPNSPSKRGNSTGIKLVRKEGGLDDSVFIAVKEIGRDLYRGLPTEERIQKLEFMLDKLQNEIDQELEHNNSLVREEKETTDTRKKSLLSAALAKSGERLQALTLLMIHYRAGIEDIETLESLSLDQHSKKISKYTDDTEEDLDNEISQLIDSQPFSSISDDLFGPSESV
B3: in assay [3], the binding result is recorded as “binds”.

B4: PDZD8-T527A-GFP, expressed in MEFs (protein, UniProt Q8NEN9 1-1154)
chain: MGLLLMILASAVLGSFLTLLAQFFLLYRRQPEPPADEAARAGEGFRYIKPVPGLLLREYLYGGGRDEEPSGAAPEGGATPTAAPETPAPPTRETCYFLNATILFLFRELRDTALTRRWVTKKIKVEFEELLQTKTAGRLLEGLSLRDVFLGETVPFIKTIRLVRPVVPSATGEPDGPEGEALPAACPEELAFEAEVEYNGGFHLAIDVDLVFGKSAYLFVKLSRVVGRLRLVFTRVPFTHWFFSFVEDPLIDFEVRSQFEGRPMPQLTSIIVNQLKKIIKRKHTLPNYKIRFKPFFPYQTLQGFEEDEEHIHIQQWALTEGRLKVTLLECSRLLIFGSYDREANVHCTLELSSSVWEEKQRSSIKTVELIKGNLQSVGLTLRLVQSTDGYAGHVIIETVAPNSPAAIADLQRGDRLIAIGGVKITSTLQVLKLIKQAGDRVLVYYERPVGQSNQGAVLQDNFGQLEENFLSSSCQSGYEEEAAGLTVDTESRELDSEFEDLASDVRAQNEFKDEAQSLSHSPKRVPATLSIKPLGAISPVLNRKLAVGSHPLPPKIQSKDGNKPPPLKTSEITDPAQVSKPTQGSAFKPPVPPRPQAKVPLPSADAPNQAEPDVLVEKPEKVVPPPLVDKSAEKQAKNVDAIDDAAAPKQFLAKQEVAKDVTSETSCPTKDSSDDRQTWESSEILYRNKLGKWTRTRASCLFDIEACHRYLNIALWCRDPFKLGGLICLGHVSLKLEDVALGCLATSNTEYLSKLRLEAPSPKAIVTRTALRNLSMQKGFNDKFCYGDITIHFKYLKEGESDHHVVTNVEKEKEPHLVEEVSVLPKEEQFVGQMGLTENKHSFQDTQFQNPTWCDYCKKKVWTKAASQCMFCAYVCHKKCQEKCLAETSVCGATDRRIDRTLKNLRLEGQETLLGLPPRVDAEASKSVNKTTGLTRHIINTSSRLLNLRQVSKTRLSEPGTDLVEPSPKHTPNTSDNEGSDTEVCGPNSPSKRGNSTGIKLVRKEGGLDDSVFIAVKEIGRDLYRGLPTEERIQKLEFMLDKLQNEIDQELEHNNSLVREEKETTDTRKKSLLSAALAKSGERLQALTLLMIHYRAGIEDIETLESLSLDQHSKKISKYTDDTEEDLDNEISQLIDSQPFSSISDDLFGPSESV
In the case of B4, the binding entry in assay [3] is listed as “binds”.

B5: PDZD8 (endogenous, MEFs) (protein, UniProt B9EJ80 1-1147)
chain: MGLLLLILASAVLGSFLTLLAQFLLLYRRQPEPRADEAARAGDGFRYLKPVPGLPLREYLYGGGAEELAACSSEAGASSTPTPDSPAPPTLETCYFLNATILFLFRELRDTALARRWVTKKIKVEFEELLQTKTAGRLLEGLSLRDVFLGDTVPFIKTIRLVRPVVASGTGEPDDPDGDALPATCPEELAFEAEVEYNGGFHLAIDVDLVFGKSAYLFVKLSRVVGRLRFVLTRVPFTHWFFSFVEDPLIDFEVRSQFEGRPMPQLTSIIVNQLKKIIKRKHTLPSYKIRFKPFFPYQALQGFEEDEELIHIQQWALTEGRLKVTLLECSRLFIFGSYDRETNVHCTLELSSGVWEEKQRSSIKTVELIKGNLQSVGLTLRLVQSTDGYAGHVIIETVAPNSPAAMADLQRGDRLIAIGGVKITSTLQVLKLIKQAGDRVLVYYQRPAGQSSQDSLGQLEESFLSSSCQAAYEEDAAGLSADTENRDLDSEFEDLASDVRVQTELKEETQPLSHSPKRTPTTLSIKPLGAISPVLNRKLISGIHPPPQKLPSKEGNKPSTLKTSETTEAAQVSKPQGPTFKPPVPPRPQGRVPLPPTDTSAQADPEAPEKPDKVLLPPPPADKPAEKQVKSVDQGEDVAAGKQSSAKQEGVKDLPSESSAPTKDSSDDPQMWESSEVLYRNKVGKWSRTRASCVFDIEACHRYLNIALWCRDPFKLGGLICLGHVSLKLEEVALGCLATSNMEYLTKFRLEPPTPKAMVTRTALRNLSMQKGFNDKFCFGDITIHFKYLKEGEPDHHIVPNVEKEKELHLVEEVSTLPKEEHFVGQMSLSENKHSFQDTQFQNPTWCDYCKKKVWTKAASQCMFCAYVCHKKCQEKCLAETPLCGATERRIDRTLKNLRLEGQDPLLGLPPRVEIEANKSVNKTTGLTRHIINTSSRLLNLRQVSKTRLSEPGTDLVEPSPKHTPNTSDNEGSDTEVCGSNSPSKRGNSAGIKLMRKEGGLDDSVFIAVKEIGRDLYRGLPTEERIQKLEFMLDKLQNEIDQELEHNNSLVREEKETNDTRKKSVLSAALAKSGERLQALTLLMIHYRAGIEDIETLENLSLDQHSKKMNKYADDTEEDLDSEISQLIDSQPFSNISDDLFGPSESV
B5: the binding entry in assay [2] is recorded as “binds”.
